Data taken from PMC6549176, “SAGA DUBm-mediated surveillance regulates prompt export of stress-inducible transcripts for proteostasis” (Nature Communications, 2019).
Results are given in words; binding and its absence hold for the method and conditions named. A result given as binding can be weak or reduced; the word gives no strength. Tags and fused reporters may be left off the sequences shown.

Columns and labels:
[1] = target: GST-Yra1p C-terminal region (S. cerevisiae); assay: pull-down; GST-tagged Yra1p or its subfragments as bait (1 µg) on beads, 200 ng target protein; 50 mM HEPES-KOH pH 7.5, 150 mM NaCl, 10% glycerol, 0.1% NP40, 0.5 mM DTT, 1 mM EDTA; 4 °C, 2 h; Western blotting; both purified
[2] = target: GST-Yra1p N-terminal region (S. cerevisiae); assay: as above

B1: recombinant Sgf73p (MBP-Sgf73p) (protein, UniProt P53165 1-657)
chain: MRSGDAEIKGIKPKVIEEYSLSQGSGPSNDSWKSLMSSAKDTPLQYDHMNRESLKKYFNPNAQLIEDPLDKPIQYRVCEKCGKPLALTAIVDHLENHCAGASGKSSTDPRDESTRETIRNGVESTGRNNNDDDNSNDNNNDDDDDDDNDDNEDDDDADDDDDNSNGANYKKNDSSFNPLKRSTSMESANTPNMDTKRSKTGTPQTFSSSIKKQKKVKQRNPTEKHLIDFNKQCGVELPEGGYCARSLTCKSHSMGAKRAVSGRSKPYDVLLADYHREHQTKIGAAAEKRAKQQELQKLQKQIQKEQKKHTQQQKQGQRSKQRNVNGGKSAKNGGKSTVHNGNNINEIGHVNLTPEEETTQVLNGVSRSFPLPLESTVLSSVRYRTKYFRMREMFASSFSVKPGYTSPGYGAIHSRVGCLDLDRTTDYKFRVRTPQPINHLTNQNLNPKQIQRLQQQRALQAQLLSQQQQQQQQQQQHHSPQAQAQASTQQPTQGMVPNHFPGGATNSSFNANVSSKQIQQQQQQQQHKSQDTGLTPLEIQSQQQKLRQQQLQQQKFEAAASYLANATKLMQESNQDSHLSGTHNNNSSKNGNNNLMTMKASISSPNTSVNSIQSPPSVNSVNGSGQGVSTGINVSGNNGRIEVGIGNSVNPYNGRIN
Q: Which results are given for B1?
A: binding [1]: binds; binding [2]: binds
